Measured values published in US20050106660A1.
No constants are given. Whether binding was seen depends on the method and setting. Binding calls can cover weak binding; strength is not graded here. Sequences can lack the tags named with a protein.

Legend:
myoglobin (Sigma) [1] = experiment: SPR (BIAcore X), myoglobin immobilized on CM5 chip
myoglobin (Sigma) [2] = experiment: SPR, legend of FIG. 4
hemoglobin (Sigma) = experiment: SPR, legend of FIG. 4

Measured: binding

B1: anticalin HbgA (mutein of human apolipoprotein D), purified, with C-terminal Strep-Tag II (designed binder, not shown: small tags and cut ends)
chain: QAFHLGKCPNPPVQENFDVNKYPGRWYEIEKIPQFVWMGRCIQANYSLMENGKIKVLNQFLRITLDVWQIEGEATPVNLTEPAKLEVKEGLGDPSAPYWILATDYENYALVYSCESFLWLFHWDFAWILARNVALPPETVDSLKNILTSNNIDVKKMTVTDQVNCPKLS
binds: all assays above
